No constants are given. Whether binding was seen depends on the method and setting. In cells and extracts the contact can be indirect. Here binding means that the protein was enriched with, or labelled near, the bait; the list need not be complete. Values belong to the binder of their own block, whether it stands above or below them.
Legend:
[1] = biological target: Wildcat gp145-HA (mycobacteriophage Wildcat); assay: affinity purification with mass spectrometry; HA-tagged phage protein expressed in M. smegmatis (induced 4 to 7 h); lysate in 50 mM Tris-HCl, 1 mM EDTA, 0.5% Triton X-100, 1 mM PMSF; anti-HA agarose or magnetic beads; washed with lysis buffer and TBS; eluted with 2X non-reducing sample buffer; 4-20% SDS-PAGE; excised bands or whole eluate identified by mass spectrometry; control: the same phage protein without the HA tag
[2] = biological target: Wildcat gp13-HA (mycobacteriophage Wildcat); assay: as above
[3] = biological target: LHTSCC gp46-HA (mycobacteriophage LHTSCC); assay: as above
[4] = biological target: Wildcat gp11-HA (mycobacteriophage Wildcat); assay: affinity purification with mass spectrometry; Wildcat gp11-HA expressed in M. smegmatis; anti-HA magnetic beads; not eluted after the washes, digested directly on the beads and analysed by tandem mass spectrometry; control: gp11 without the HA tag

binding [1]: binds
B1: thioredoxin disulfide reductase (Msmeg_1516) (protein, UniProt A0QSL0 1-552)
chain: MILSVDDDPAVSRAVARDLRRHYGERYRIVRAESGPDALETLHELKLRGDTVAVFVADYRMPQMSGIEFLESAMDLYPMARRVLLTAYADTNAAIAAINVVDLDHYLLKPWDPPEEKLYPVIDGLLEAWHAAGDRAIPYTKVIGHQWSPRSWEVRQFLARNQHTYRAFNADEPKGRQLLEAAGLDGMQLPVVITEGGTTLVEPTDAELADMLGLSTAPSLTMYDLAVIGGGPAGLAAAVYGASEGLKTVLIEGTTTGGQASRSSRIENYLGFPTGISGAELATSARRQAERFGAEVITTREAVKLEVAGSARTITFADGDTIGARAVILATGVDYRQLPVPGCWDDPDNPVNFIGRGVYYGASVSDAAECCDEDVYIVGGANSAGQAAMFMARTARSVTLLVRGPSLEASMSYYLIQQIEDTPNIHVRTCTEVVKAIGEDDHLVGLVLENKRTGEQEEVRSSRLCCFIGATPRTEWLDGVVARDEHGFILAGPDLRDVCGWTLERPPHHLETSVPGVFVAGDVRAESAKRVAAAVGEGSMAVMFVHRYLAES

binding [2]: binds
B2: Msmeg_1285 (protein, UniProt A0QRY7 1-801)
chain: MATVTDAVARILAEQGPLHTDEIERLLQASGEPVPEPVVDELSMPVGMLVDDRWVWLPTVLDGRVFTHRLSAHEVAHDMLDAAVDLDPVSDLFHLDEYLRLADGSPVSFAVADYDDELLEDRGIPLELAGESGVVLLAPGTLAALKAAEGDLVGLRLTDQGLALETIETVVDADIGNRLAEVLPGDEPTFVDAAALTLCAEDPTVFVEATAPLSEVIREAGLAYSDGFIAPAGFDFGRWRFETACHRSADTHGLDPDDAVALQTLIMALEQLTVDADSLPLLRRAGAALENPVVADALVEETVDAGRGSPESLSRLTEALEAQVPRPARAAVRWLRATALERAGDIAAAERELLAAETMDTEWPLTLVDLAHIASDRGDAERALALLRRAGFPPDHPNVQFLQRYLVAPRPDLGRNEPCWCGSGRKYKKCHLGNEQLSLEERAAWLYSKAAQHVSETHWHGMLLELALERSRYADDLHDAIAEAMSDPLVMDALLHEGDAFADFLRVRGPLLPDDERALAEQWLLVDRSVFEVQAVRPGETVTVRDVRTGDRHEVRERLASREVKPGELLCARVLPTGSIMQFFGGIERVSLGERDELIELLDSRPDEVTLVAALTRRFAPPTLTNTEGDLLMVCEAAVRFADPAALDAVYVRADDDPPHWFEHVPGKPQIRASLKLDGDTLRVETNSEERMDRVLAELGRLDPAMTVLEESRRPISEVTPPSRELLEPDDPEMIAAMEEFMRDYETRWLDESIPALNGLTPRQAADDPTRRGDLIKLLDSFPATERGMNADRLRAALGLD

binding [3]: binds
binding [4]: binds
B3: PadR-family transcriptional regulator (Msmeg_6227) (protein, UniProt A0R5K8 1-246)
chain: MSTPFAFPTGDFGFGPAGRRAMLHHRRAARREFRDQMRAHLHEAREQALDPRCEMGGPGGPGPMGGPGRGFGGFGFGFDPGAGFGFGPGGPRGRRGHGRGRRGRRGDVRAAILKLLAERPMHGYEMIQEIGERTDNLWRPSPGSVYPTLQLLVDEGLISGTEAEGSKKLFELTEAGRAAAEAIETPPWEQIAEDVDPAAVNLRGAIAQLMGAVAQSAYTATEDQQQRILDVVNNARREIYQILGEE
